Results published in US11666558B2, “Methods of treating intraocular pressure with activators of Tie-2” (EyePoint Pharmaceuticals, Inc., priority 2015, dated 2023).
Several values for one entry are separate records, joined by “and”; a condition that tells them apart may be missing. Equal values may be shown once. The source gives many values for each of these; only a part stands here.

Test: Ocular tissue concentrations (aqueous humor, vitreous humor, iris, retina, choroid, cornea) after topical ocular, subcutaneous and intravitreal administration
Format: in vivo, New Zealand White rabbits
Settings: for Conc. (ng/mL) OS / Conc. (ng/g) OS: left eye; for Conc. (ng/mL) OS / Conc. (ng/mL) OD / Conc. (ng/g) OS / Conc. (ng/g) OD: intravitreal 2.5 mg/eye (group 5), individual animals; for Conc. (ng/mL) OD / Conc. (ng/g) OD: right eye; for Cornea Conc. (ng/g) OS / Cornea Conc. (ng/g) OD / Conc. (ng/g) OS / Conc. (ng/g) OD: Cornea
Description: To measure the concentration of Compound 1 in plasma and ocular tissues following topical ocular, subcutaneous, and intravitreal administration, New Zealand White rabbits were administered Compound 1, and plasma and ocular samples were collected at pre-determined time points. Compound 1 formulations were prepared fresh on each day of dosing.
Ocular tissue samples from both eyes of each animal were collected and weights were recorded. Plasma and ocular tissue sample concentrations of Compound 1 were determined by LC-MS/MS.
New Zealand White rabbits weighing 2.5 to 3.5 kg were used on this study. Rabbits were housed one per cage. Animals were not fasted and only healthy animals with no ocular illness were used. Two rabbits per group were sacrificed at each of four ocular tissue sampling time points for a total of eight rabbits per group.
Animals were anesthetized for ocular (topical) and intravitreal dosing following the 12IA7 IACUC protocol. Each rabbit received a bolus dose of test formulation either via topical ocular administration 3 times daily on Days 1 and 2 (at 0, 6, and 12 hours), and once on Day 3 (at 0 hours) into both eyes; via intravitreal administration into both eyes once on Day 1 (at 0 hours); or via subcutaneous administration 2 times daily on Days 1 and 2 (at 0 and 8 hours) and once daily on Day 3 (at 0 hours). Doses were given within an approximately 1 hour window each day where applicable.
On Day 1, for intravitreal administration, or on Day 3, for topical ocular and subcutaneous administration, at the appropriate ocular tissue collection time points, animals were euthanized and both eyes were enucleated immediately. Following enucleation, each eye was rinsed with phosphate-buffered saline. Ocular tissue samples from both eyes of each animal were collected at predetermined time points and weights were recorded. All the samples were frozen immediately on dry ice, and stored at −60° C. to −80° C. pending bioanalysis.
An LC-MS/MS method was developed for the determination of Compound 1 in rabbit aqueous tissues (plasma, aqueous and vitreous humor) and solid ocular tissue samples. A pre-study standard curve was analyzed to determine the specificity, range, and lower limit of quantitation of the method. Plasma and tissue homogenate study samples were extracted and analyzed. All the samples were treated identically to the standards.
One eight-point standard curve was used in each analytical batch. To be accepted, each batch must have had at least five of eight standards with accuracy within ±20% of nominal, except at the lower limit of quantification (LLOQ), where ±25% was acceptable.
Concentration versus time data is plotted in FIGS. 3-16. All data are expressed as ng/g of the free drug. Samples that were below the limit of quantitation (0.2 ng/mL) were not used in the calculation of averages.

[1] = Cornea homogenate, 4 hr, sodium salt, subcutaneous 5 mg/kg/dose, Group 2
[2] = Cornea homogenate, 6.0 hr, sodium salt, intravitreal 2.5 mg/eye, Group 4
[3] = Cornea homogenate, 24 hr, sodium salt, intravitreal 2.5 mg/eye, Group 4
[4] = Cornea homogenate, 48 hr, sodium salt, intravitreal 2.5 mg/eye, Group 4
[5] = 4 hr, sodium salt, subcutaneous 5 mg/kg/dose, Group 2
[6] = 6.0 hr, sodium salt, intravitreal 2.5 mg/eye, Group 4
[7] = 24 hr, sodium salt, intravitreal 2.5 mg/eye, Group 4
[8] = 48 hr, sodium salt, intravitreal 2.5 mg/eye, Group 4
[9] = Iris homogenate, 1 hr, sodium salt, subcutaneous 5 mg/kg/dose, Group 2
[10] = Iris homogenate, 2 hr, free acid, subcutaneous 5 mg/kg/dose, Group 3
[11] = Iris homogenate, 4 hr, free acid, subcutaneous 5 mg/kg/dose, Group 3
[12] = Iris homogenate, 6.0 hr, sodium salt, intravitreal 2.5 mg/eye, Group 4

## COC(=O)N[C@@H](Cc1ccccc1)C(=O)N[C@@H](Cc1ccc(NS(=O)(=O)O)cc1)c1csc(-c2cccs2)n1 [Compound 1]
Cornea homogenate, 1 hr, sodium salt, subcutaneous 5 mg/kg/dose, Group 2
  Cornea Conc. (ng/mL) OS: 2.30 ng/mL
Cornea homogenate, 4 hr, free acid, subcutaneous 5 mg/kg/dose, Group 3
  Cornea Conc. (ng/mL) OD: 0.847 ng/mL
[1]
  Cornea Conc. (ng/mL) OD: 0.873 ng/mL
  Cornea Conc. (ng/mL) OS: 1.26 ng/mL
[2]
  Cornea Conc. (ng/mL) OD: 6710 ng/mL
  Cornea Conc. (ng/mL) OS: 6030 ng/mL
Cornea homogenate, 6.0 hr
  Conc. (ng/mL) OS: 3140 ng/mL and 1180 ng/mL
  Conc. (ng/mL) OD: 7610 ng/mL
[3]
  Cornea Conc. (ng/mL) OD: 2940 ng/mL
  Cornea Conc. (ng/mL) OS: 1930 ng/mL
Cornea homogenate, 24 hr
  Conc. (ng/mL) OS: 1050 ng/mL
  Conc. (ng/mL) OD: 2520 ng/mL
[4]
  Cornea Conc. (ng/mL) OD: 538 ng/mL
  Cornea Conc. (ng/mL) OS: 487 ng/mL
Cornea homogenate, 48 hr
  Conc. (ng/mL) OS: 571 ng/mL
  Conc. (ng/mL) OD: 384 ng/mL
Cornea homogenate, 72 hr
  Conc. (ng/mL) OS: 117 ng/mL and 45.3 ng/mL
  Conc. (ng/mL) OD: 37.7 ng/mL and 77.2 ng/mL
0.5 hr, sodium salt, subcutaneous 5 mg/kg/dose, Group 2
  Cornea Conc. (ng/g) OS: 21.3 ng/g
1 hr, sodium salt, subcutaneous 5 mg/kg/dose, Group 2
  Cornea Conc. (ng/g) OD: 23.4 ng/g
4 hr, free acid, subcutaneous 5 mg/kg/dose, Group 3
  Cornea Conc. (ng/g) OD: 9.32 ng/g
[5]
  Cornea Conc. (ng/g) OD: 9.60 ng/g
  Cornea Conc. (ng/g) OS: 13.9 ng/g
[6]
  Cornea Conc. (ng/g) OD: 73810 ng/g
  Cornea Conc. (ng/g) OS: 66330 ng/g
6.0 hr
  Conc. (ng/g) OS: 34540 ng/g and 12980 ng/g
  Conc. (ng/g) OD: 83710 ng/g
[7]
  Cornea Conc. (ng/g) OD: 32340 ng/g
  Cornea Conc. (ng/g) OS: 21230 ng/g
24 hr
  Conc. (ng/g) OS: 11550 ng/g
  Conc. (ng/g) OD: 27720 ng/g
[8]
  Cornea Conc. (ng/g) OD: 5918 ng/g
  Cornea Conc. (ng/g) OS: 5357 ng/g
48 hr
  Conc. (ng/g) OS: 6281 ng/g
  Conc. (ng/g) OD: 4224 ng/g
72 hr
  Conc. (ng/g) OS: 1287 ng/g and 498 ng/g
  Conc. (ng/g) OD: 415 ng/g and 849 ng/g
Iris homogenate, 0.5 hr, sodium salt, subcutaneous 5 mg/kg/dose, Group 2
  Iris Conc. (ng/mL) OD: 41.3 ng/mL
Iris homogenate, 0.5 hr, free acid, subcutaneous 5 mg/kg/dose, Group 3
  Iris Conc. (ng/mL) OS: 3.54 ng/mL
[9]
  Iris Conc. (ng/mL) OD: 9.02 ng/mL
  Iris Conc. (ng/mL) OS: 5.13 ng/mL
Iris homogenate, 1 hr, free acid, subcutaneous 5 mg/kg/dose, Group 3
  Iris Conc. (ng/mL) OS: 3.12 ng/mL
[10]
  Iris Conc. (ng/mL) OD: 2.91 ng/mL
  Iris Conc. (ng/mL) OS: 1.67 ng/mL
[11]
  Iris Conc. (ng/mL) OD: 1.63 ng/mL
  Iris Conc. (ng/mL) OS: 0.794 ng/mL
Iris homogenate, 4 hr, sodium salt, subcutaneous 5 mg/kg/dose, Group 2
  Iris Conc. (ng/mL) OD: 3.07 ng/mL
[12]
  Iris Conc. (ng/mL) OD: 27800 ng/mL
  Iris Conc. (ng/mL) OS: 30600 ng/mL
Iris homogenate, 6.0 hr
  Conc. (ng/mL) OS: 12200 ng/mL
